Measured values: the supplement of paper PMC12889115
The list shows a part of the results. These are raw signals, not scaled to a control.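 First-pass screen: polymyxin B was added at a level that permeabilizes the Salmonella outer membrane while sparing the inner membrane. DMSO wells, with and without polymyxin B, defined maximum growth. Because plates differed from one another, each plate's data were ranked separately and the compounds with the lowest OD600 were carried forward as hits.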

System: Salmonella enterica serovar Typhimurium SL1344
Experiment: bacterial growth OD600 after 18 h with compound and polymyxin B; higher = more bacterial growth (less inhibition)
Conditions: 50 µM, Mueller-Hinton broth

SMILES | bacterial growth OD600 (polymyxin B 1 µg/mL) | bacterial growth OD600 (polymyxin B 0.75 µg/mL)
O=C1CCCN1CCCC(=O)N1CCCC(N2CCN(c3cccc(Cl)c3)CC2)C1 (stereo unspecified) | 0.945 | 
C=CCNC(=O)c1coc(COc2ccc(F)cc2)n1 | 0.987 | 
O=C(CCc1ccncc1)N1CCCC(CCc2ccccc2F)C1 (stereo unspecified) |  | 0.004
CCOC(=O)C1(Cc2ccc(F)cc2)CCCN(C(=O)c2sccc2C)C1 (stereo unspecified) | 0.333 | 
COc1ccc(C(=O)N2CCC(C3CCN(c4ncccn4)CC3)C2)o1 (stereo unspecified) |  | 0.958
Cc1cc(C)n(CCNC2CCN(c3ccc(C(=O)N4CCOCC4)cc3)CC2)n1 |  | 0.909
O=C(NCc1cccnc1)C1CCN(C2CCN(CC3CCCC3)CC2)CC1 | 0.859 | 
CC(C)c1ccc(CN2CCCC3(CCN(S(C)(=O)=O)C3)C2=O)cc1 (stereo unspecified) | 0.876 | 
COc1ccc(CN2CCN(Cc3cnn(C(C)C)c3)CC2CCO)c(F)c1 (stereo unspecified) | 0.873 | 
CCOc1ccccc1N1CCN(C(=O)CCC2(Cc3ccc(OC)cc3F)CCC(=O)N2)CC1 (stereo unspecified) |  | 0.822
COc1ccc(/C=C/CN2CCCC(CCC(=O)N(C)C3CCN(C)CC3)C2)cc1 (stereo unspecified) | 1.05 | 
COc1ccc(CC(=O)NCCN2Cc3ccccc3OC(c3ccccc3OC)C2)cc1OC (stereo unspecified) |  | 0.791
O=C(CC(c1ccc(O)cc1)c1cccc(O)c1)NC1CCC1 (stereo unspecified) | 1.08 | 
CCOCCCNC(=O)c1cc(OC)ccc1OC1CCN(C2CCCC2)CC1 | 1.25 | 
O=C(/C=C/c1ccccc1)N1CC[C@@H](N2CCN(CCc3ccccc3)CC2)[C@H](O)C1 |  | 0.758
CO[C@H]1[C@H](NC(=O)c2cccc(F)c2)c2ccccc2C12CCN(Cc1ccsc1)CC2 |  | 0.828

Look-ups from the results shown:
bacterial growth OD600 (polymyxin B 1 µg/mL), `O=C(NCc1cccnc1)C1CCN(C2CCN(CC3CCCC3)CC2)CC1` is entered as 0.859
bacterial growth OD600 (polymyxin B 0.75 µg/mL), `COc1ccc(C(=O)N2CCC(C3CCN(c4ncccn4)CC3)C2)o1` (stereo unspecified) is entered as 0.958

Later entries.

SMILES | bacterial growth OD600 (polymyxin B 1 µg/mL) | bacterial growth OD600 (polymyxin B 0.75 µg/mL)
Cc1oc(-c2cccc(NC(=O)CCc3cccnc3)c2)nc1CNC(=O)C1CC=CCC1 (stereo unspecified) |  | 0.734
OCCOc1cccc(CN2Cc3ccccc3OC(c3ccccc3F)C2)c1 (stereo unspecified) |  | -0.003
CCN1CCN(C2(C(=O)N[C@@H](CC(C)C)C(=O)OC)Cc3ccccc3C2)CC1 |  | 0.851
COCC1CCCCN1C(=O)c1csc2nc(-c3cccc(Cl)c3)cn12 (stereo unspecified) |  | 0.003
CC(C)c1nc(CNC(=O)c2ccc(N(C)Cc3ccc(F)cc3)nc2)no1 | 0.852 | 
CCN1CCN(C2(C(=O)N3CCC(COC)CC3)Cc3ccccc3C2)CC1 |  | 0.905
O=C(Nc1ccc(-n2cccn2)cc1)C1CCCN1Cc1ccc2c(c1)CCO2 (stereo unspecified) |  | 0.948
CCC1(CCC(=O)NC(Cc2ccccc2)c2ccccc2)CCC(=O)N1 (stereo unspecified) |  | 0.866
CN(Cc1nc(-c2cccs2)no1)C1CCCc2ccccc21 (stereo unspecified) | 0.886 | 
Cc1c(CC(=O)NCC2CC2)c2c(n1CCc1ccccc1)CCCC2=O | 0.586 | 
CC1CN(CCC(=O)NCCCOc2cccnc2)Cc2cc(Cl)ccc2O1 (stereo unspecified) |  | 0.775
CC1CN(CC(=O)NCc2cc(F)ccc2F)Cc2cc(Cl)ccc2O1 (stereo unspecified) |  | 0.007
O=C(CN1CCCCC1)N1CCc2onc(-c3cccc(F)c3)c2C1 |  | 0.857
CCc1cc(C(=O)NCc2c(C)ncc3c2CCN(C(=O)c2cccc(-c4ccco4)c2)C3)no1 |  | 0.835
COc1ccc(-c2nc(CN3CCN(Cc4ccc(F)cc4)C(=O)C3)c(C)o2)c(C)c1C |  | 0.003
